Test results: the supplement of paper PMC12819154, “High-throughput peptide-centric local stability assay extends protein–ligand identification to membrane proteins, tissues and bacteria” (Nature Structural & Molecular Biology, 2025)
Some of the results follow. Most entries show no effect beyond the scatter of the controls.

By UniProt entry, the sequences of proteins in these tests, tags left out. Where a name states a change or a piece, a line headed by the entry shows the natural chain unless it says otherwise.
UniProt Q9JHW2: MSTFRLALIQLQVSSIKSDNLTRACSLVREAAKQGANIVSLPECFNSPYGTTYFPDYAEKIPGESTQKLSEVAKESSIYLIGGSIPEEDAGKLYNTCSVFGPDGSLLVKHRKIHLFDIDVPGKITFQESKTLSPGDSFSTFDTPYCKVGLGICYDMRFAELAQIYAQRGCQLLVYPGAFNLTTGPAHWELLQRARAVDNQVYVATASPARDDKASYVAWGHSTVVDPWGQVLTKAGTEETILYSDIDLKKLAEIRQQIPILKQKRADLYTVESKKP
UniProt Q9DCL9: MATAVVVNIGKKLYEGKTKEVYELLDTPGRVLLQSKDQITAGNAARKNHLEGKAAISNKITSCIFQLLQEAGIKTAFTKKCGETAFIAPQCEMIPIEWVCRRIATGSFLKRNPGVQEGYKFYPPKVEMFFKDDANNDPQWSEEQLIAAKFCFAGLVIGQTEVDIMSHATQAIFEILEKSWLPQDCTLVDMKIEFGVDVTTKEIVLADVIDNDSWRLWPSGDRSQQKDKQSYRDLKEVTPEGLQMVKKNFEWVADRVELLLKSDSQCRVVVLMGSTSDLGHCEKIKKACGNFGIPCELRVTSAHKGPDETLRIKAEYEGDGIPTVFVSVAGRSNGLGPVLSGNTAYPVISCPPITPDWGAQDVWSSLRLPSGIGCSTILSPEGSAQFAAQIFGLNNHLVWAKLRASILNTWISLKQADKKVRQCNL
UniProt Q9DCL8: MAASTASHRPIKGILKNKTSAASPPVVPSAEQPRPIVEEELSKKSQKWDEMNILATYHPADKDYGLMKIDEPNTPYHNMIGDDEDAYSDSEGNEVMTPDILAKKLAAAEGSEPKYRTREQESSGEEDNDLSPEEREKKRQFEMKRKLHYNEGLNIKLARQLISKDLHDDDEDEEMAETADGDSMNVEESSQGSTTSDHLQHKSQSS
UniProt Q9QYF1: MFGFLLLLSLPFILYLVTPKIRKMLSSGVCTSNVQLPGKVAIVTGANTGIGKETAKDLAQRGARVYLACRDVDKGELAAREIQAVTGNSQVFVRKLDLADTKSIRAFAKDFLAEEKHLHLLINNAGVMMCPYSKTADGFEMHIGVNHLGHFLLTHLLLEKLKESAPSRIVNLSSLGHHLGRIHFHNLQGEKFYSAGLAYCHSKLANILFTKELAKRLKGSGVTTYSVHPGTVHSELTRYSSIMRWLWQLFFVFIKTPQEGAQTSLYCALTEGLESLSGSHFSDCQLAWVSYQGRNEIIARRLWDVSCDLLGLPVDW
UniProt Q9ET26: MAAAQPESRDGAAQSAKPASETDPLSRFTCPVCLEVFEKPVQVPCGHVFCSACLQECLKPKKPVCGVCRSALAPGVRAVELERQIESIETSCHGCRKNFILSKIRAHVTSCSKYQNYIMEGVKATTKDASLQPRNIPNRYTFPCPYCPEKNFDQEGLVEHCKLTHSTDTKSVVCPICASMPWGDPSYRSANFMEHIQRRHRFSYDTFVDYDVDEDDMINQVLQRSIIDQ
UniProt Q9JLJ1, whole entry: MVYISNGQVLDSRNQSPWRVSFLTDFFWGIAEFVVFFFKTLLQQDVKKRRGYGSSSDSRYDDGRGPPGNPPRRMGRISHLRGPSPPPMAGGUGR
UniProt Q9EST3: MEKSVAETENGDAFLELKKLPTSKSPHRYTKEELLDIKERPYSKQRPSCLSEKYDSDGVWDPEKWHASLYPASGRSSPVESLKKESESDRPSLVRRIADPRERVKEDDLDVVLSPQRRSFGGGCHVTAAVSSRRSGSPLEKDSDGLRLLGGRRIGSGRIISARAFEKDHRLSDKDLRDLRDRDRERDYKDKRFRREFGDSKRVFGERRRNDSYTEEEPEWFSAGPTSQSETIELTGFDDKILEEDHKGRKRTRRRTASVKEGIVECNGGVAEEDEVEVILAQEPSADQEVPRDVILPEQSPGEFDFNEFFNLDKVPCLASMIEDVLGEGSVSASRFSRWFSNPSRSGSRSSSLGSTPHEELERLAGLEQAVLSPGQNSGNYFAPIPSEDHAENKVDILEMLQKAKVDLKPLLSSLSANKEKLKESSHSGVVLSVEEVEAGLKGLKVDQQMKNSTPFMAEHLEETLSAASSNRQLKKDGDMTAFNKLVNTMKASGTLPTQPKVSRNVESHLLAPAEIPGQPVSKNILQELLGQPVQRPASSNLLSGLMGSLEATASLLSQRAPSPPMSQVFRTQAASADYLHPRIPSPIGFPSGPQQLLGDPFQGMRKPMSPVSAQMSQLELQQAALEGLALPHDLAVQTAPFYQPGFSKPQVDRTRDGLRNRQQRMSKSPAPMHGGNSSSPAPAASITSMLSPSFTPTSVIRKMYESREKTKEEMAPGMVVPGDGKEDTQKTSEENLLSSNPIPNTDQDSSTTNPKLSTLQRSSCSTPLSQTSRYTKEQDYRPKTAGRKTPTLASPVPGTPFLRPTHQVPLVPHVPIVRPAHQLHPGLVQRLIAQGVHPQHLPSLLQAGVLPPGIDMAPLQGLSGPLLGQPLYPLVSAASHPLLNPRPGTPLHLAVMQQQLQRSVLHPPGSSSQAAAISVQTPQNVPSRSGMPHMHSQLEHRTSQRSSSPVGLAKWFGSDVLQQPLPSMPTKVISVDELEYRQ
UniProt Q9QUR7, whole entry: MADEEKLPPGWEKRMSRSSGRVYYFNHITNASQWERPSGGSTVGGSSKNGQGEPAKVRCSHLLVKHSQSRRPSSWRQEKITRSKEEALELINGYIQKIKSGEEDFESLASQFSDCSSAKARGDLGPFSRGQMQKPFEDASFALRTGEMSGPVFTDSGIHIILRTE
UniProt Q9EPQ7, whole entry: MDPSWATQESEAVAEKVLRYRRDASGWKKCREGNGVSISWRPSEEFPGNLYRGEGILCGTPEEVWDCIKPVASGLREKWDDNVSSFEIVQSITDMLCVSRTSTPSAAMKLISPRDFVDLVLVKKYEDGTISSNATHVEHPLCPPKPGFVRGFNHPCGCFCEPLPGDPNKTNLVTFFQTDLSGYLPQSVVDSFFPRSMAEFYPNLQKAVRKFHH
UniProt Q9JHS3, whole entry: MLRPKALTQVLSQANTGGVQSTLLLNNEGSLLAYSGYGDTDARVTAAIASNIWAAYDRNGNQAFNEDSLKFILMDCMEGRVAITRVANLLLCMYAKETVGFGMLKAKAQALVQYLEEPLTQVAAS
UniProt Q9JJH1: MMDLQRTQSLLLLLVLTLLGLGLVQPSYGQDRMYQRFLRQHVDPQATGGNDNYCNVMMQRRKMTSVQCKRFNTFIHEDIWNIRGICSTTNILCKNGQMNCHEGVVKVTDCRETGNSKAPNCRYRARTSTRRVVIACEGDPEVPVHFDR
UniProt Q9JLB0: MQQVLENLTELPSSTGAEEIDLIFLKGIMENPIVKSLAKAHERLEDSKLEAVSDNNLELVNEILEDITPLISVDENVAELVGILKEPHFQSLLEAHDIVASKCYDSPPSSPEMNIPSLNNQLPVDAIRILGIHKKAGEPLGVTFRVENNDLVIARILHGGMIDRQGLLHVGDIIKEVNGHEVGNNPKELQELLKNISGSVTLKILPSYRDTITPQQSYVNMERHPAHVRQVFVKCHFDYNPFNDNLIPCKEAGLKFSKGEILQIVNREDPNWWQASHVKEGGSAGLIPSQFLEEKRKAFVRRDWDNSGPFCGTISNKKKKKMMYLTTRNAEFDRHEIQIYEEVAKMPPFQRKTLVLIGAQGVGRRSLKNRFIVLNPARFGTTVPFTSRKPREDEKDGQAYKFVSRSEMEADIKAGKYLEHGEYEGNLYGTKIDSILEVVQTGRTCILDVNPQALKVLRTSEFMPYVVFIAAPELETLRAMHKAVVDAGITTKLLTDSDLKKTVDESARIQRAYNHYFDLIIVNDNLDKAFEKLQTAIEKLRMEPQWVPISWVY
UniProt Q9QUR6: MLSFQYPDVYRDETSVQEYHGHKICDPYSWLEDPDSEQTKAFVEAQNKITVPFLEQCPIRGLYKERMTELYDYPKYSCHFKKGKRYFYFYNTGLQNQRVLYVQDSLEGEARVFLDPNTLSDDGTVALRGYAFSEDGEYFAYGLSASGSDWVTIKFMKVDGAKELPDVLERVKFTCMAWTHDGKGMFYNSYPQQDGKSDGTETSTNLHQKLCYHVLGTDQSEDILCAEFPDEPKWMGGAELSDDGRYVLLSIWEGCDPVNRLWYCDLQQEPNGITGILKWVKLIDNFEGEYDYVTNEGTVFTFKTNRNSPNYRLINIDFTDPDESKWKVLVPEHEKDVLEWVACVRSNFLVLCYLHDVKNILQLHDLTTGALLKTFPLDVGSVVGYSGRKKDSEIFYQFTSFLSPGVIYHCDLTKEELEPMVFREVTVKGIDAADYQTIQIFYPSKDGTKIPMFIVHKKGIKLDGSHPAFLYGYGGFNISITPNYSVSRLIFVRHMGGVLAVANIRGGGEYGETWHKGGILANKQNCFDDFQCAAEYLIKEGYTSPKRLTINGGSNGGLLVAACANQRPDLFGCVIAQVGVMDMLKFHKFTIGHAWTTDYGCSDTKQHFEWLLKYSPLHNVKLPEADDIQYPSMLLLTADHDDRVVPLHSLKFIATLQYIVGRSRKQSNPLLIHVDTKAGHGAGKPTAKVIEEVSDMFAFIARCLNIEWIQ
UniProt Q9QXG2: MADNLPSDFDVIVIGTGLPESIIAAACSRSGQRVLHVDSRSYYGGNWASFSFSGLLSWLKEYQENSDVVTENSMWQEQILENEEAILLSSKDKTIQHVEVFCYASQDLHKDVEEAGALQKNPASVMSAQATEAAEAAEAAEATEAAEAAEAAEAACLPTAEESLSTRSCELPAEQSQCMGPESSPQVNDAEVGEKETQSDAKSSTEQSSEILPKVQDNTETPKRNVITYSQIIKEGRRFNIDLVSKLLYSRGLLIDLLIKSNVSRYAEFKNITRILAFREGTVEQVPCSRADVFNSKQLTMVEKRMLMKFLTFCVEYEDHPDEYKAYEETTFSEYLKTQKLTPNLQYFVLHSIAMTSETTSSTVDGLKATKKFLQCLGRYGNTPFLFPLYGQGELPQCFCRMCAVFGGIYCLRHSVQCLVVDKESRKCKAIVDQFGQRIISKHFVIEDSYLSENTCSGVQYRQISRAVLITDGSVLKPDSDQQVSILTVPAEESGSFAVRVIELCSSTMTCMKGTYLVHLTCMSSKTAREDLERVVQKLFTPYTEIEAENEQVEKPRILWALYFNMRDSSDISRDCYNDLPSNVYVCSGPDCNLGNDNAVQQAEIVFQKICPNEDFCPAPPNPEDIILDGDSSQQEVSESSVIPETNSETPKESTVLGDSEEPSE
UniProt Q9EPK7: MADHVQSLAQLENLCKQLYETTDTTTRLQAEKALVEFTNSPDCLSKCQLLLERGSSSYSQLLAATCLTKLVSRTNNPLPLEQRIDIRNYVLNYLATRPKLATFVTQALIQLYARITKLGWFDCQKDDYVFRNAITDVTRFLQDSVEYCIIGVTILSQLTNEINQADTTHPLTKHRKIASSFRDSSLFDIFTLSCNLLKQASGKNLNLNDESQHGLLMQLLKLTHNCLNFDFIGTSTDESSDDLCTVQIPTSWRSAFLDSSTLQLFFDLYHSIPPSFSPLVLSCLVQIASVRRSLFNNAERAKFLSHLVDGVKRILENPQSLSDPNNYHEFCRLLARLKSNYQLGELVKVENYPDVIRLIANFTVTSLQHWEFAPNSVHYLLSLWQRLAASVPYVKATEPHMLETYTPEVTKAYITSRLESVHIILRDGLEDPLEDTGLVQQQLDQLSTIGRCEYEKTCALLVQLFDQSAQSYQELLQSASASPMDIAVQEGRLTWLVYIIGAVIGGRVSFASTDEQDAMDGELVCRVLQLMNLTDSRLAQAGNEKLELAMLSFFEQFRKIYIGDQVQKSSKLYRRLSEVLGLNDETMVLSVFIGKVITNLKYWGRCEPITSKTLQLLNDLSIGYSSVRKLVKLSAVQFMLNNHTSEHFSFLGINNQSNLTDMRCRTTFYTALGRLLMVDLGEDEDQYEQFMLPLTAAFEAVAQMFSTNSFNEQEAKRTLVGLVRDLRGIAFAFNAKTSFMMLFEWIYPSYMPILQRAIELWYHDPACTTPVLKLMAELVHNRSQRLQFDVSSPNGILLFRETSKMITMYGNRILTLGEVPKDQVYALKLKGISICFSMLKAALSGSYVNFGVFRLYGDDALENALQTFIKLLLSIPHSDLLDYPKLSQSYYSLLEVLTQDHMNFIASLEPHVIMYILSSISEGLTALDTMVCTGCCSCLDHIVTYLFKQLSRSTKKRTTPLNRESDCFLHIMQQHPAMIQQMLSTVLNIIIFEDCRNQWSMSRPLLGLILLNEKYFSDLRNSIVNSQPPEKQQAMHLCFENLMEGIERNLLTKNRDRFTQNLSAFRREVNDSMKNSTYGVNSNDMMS
UniProt Q9DCS3: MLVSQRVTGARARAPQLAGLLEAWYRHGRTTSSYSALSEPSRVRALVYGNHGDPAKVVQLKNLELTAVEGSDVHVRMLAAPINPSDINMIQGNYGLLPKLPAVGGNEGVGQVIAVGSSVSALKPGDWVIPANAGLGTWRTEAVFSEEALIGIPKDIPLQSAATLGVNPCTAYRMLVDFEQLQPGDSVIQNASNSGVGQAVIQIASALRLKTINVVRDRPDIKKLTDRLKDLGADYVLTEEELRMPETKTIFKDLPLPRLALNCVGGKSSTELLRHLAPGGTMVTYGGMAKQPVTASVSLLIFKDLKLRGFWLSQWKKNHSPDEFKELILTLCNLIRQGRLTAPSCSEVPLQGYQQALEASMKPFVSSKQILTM

What follows are targets tested with CN[C@@H]1C[C@H]2O[C@@](C)([C@@H]1OC)n1c3ccccc3c3c4c(c5c6ccccc6n2c5c31)C(=O)NC4 [staurosporine] (assay: log2 fold change of pooled soluble protein (PISA), ligand vs vehicle (log2 ratio); higher = more thermally stabilized). Details: ligand concentration: 20 uM; assay format: PISA pool 52.9/55.5/58.6 C.

Row | Target | log2 fold change of pooled soluble protein
1 | UniProt Q9JHJ0 | 0.13
2 | UniProt Q9JHW2 | -0.0344
3 | UniProt Q9ERK4 | -0.132
4 | UniProt Q9DCL9 | -0.0731
5 | UniProt Q9DCH4 | -0.0835
6 | UniProt Q9DCL8 | 0.234
7 | UniProt Q9QYF1 | 0.00421
8 | UniProt Q9QXT0 | 0.00402
9 | UniProt Q9JK81 | -0.368
10 | UniProt Q9JKB3 | 0.00537
11 | UniProt Q9DCD5 | -0.0757
12 | UniProt Q9EPL9 | 0.0316
13 | UniProt Q9ET26 | 0.0939
14 | UniProt Q9QWY8 | 0.0992
15 | UniProt Q9QXZ0 | -0.0556
16 | UniProt Q9JL61 | 0.0558
17 | UniProt Q9QXC1 | -0.0818
18 | UniProt Q9JLJ1 | -0.209

Reprinted at random: two records from the list
Row | Target | log2 fold change of pooled soluble protein
3 | UniProt Q9ERK4 | -0.132
9 | UniProt Q9JK81 | -0.368

Additional entries.

Row | Target | log2 fold change of pooled soluble protein
19 | UniProt Q9JIL4 | 0.00623
20 | UniProt Q9QY24 | -0.00528
21 | UniProt Q9JJN5 | -0.121
22 | UniProt Q9EST3 | 0.0336
23 | UniProt Q9QUR7 | 0.243
24 | UniProt Q9EP69 | 0.107
25 | UniProt Q9EPQ7 | 0.0531
26 | UniProt Q9JHS3 | -0.0419
27 | UniProt Q9QX15 | 0.208
28 | UniProt Q9JJH1 | -0.00886
29 | UniProt Q9JLB0 | -0.0711
30 | UniProt Q9QUR6 | -0.111
31 | UniProt Q9JMH9 | 0.0839
32 | UniProt Q9QXG2 | 0.0228
33 | UniProt Q9JHR7 | -0.0217
34 | UniProt Q9EPK7 | 0.0637
35 | UniProt Q9JHK4 | -0.0987
36 | UniProt Q9DCS3 | 0.154
